The full ranking holds about 33,000 sequences; the median of “E-score (-0.5 to 0.5)” is about -0.016, and the highest 2% start at about 0.3. The list shows a part of the results.
biological target: T1, Yer184c (UniProt P39961); test: PBM E-score (8-mer binding enrichment) (E-score (-0.5 to 0.5)); higher = stronger / more preferred TF binding; conditions: protein concentration: 100 nM; construct: GST-full length
T1 sequence: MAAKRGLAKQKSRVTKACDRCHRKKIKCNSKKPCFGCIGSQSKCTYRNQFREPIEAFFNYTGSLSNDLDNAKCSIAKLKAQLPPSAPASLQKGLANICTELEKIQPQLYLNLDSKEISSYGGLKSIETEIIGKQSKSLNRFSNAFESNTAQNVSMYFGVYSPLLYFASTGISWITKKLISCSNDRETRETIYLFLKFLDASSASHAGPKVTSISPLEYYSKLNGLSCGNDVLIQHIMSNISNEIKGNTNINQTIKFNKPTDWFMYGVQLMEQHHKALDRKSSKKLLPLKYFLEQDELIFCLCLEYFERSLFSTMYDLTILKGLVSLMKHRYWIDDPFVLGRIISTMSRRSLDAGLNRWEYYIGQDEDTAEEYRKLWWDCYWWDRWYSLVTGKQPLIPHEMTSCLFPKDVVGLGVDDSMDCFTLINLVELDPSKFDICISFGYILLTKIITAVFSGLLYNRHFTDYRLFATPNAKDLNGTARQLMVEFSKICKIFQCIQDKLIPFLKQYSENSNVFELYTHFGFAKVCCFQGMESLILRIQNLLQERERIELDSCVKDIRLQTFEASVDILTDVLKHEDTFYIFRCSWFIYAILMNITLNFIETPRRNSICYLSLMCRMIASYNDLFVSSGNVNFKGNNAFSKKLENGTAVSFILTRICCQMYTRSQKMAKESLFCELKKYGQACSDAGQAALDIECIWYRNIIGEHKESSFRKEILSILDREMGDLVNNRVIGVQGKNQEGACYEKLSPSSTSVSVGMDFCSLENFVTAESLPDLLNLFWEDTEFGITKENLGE
Procedure, shortened: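 The E-score, a modified Wilcoxon-Mann-Whitney statistic, was computed by the Universal PBM Analysis Suite for every ungapped eight-base word pooled with its reverse complement. Scans behind it were normalised with masliner after bound GST-tagged yeast transcription factors were detected with fluorescent anti-GST. The proteins, at about 100-200 nM, had been applied to universal all-10-mer Agilent arrays made double-stranded by primer extension.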

Row | Sequence | PBM E-score
1 | TGTTTCAA | 0.153
2 | ATTTCCGA | 0.359
3 | CTAGACCC | -0.174
4 | GCAATATA | -0.0561
5 | AAGTCTGC | -0.12
6 | AAACAGCA | 0.118
7 | AACAAAGA | 0.168
8 | CTGGAGTA | -0.192
9 | CTGTGCGA | -0.127
10 | CAGGCTGG | -0.215
11 | CTAATCCC | -0.108
12 | AAGCACAC | -0.138
13 | ATCCCGGC | 0.299
14 | CTATCGGA | 0.319
15 | AAACCTCC | -0.152
16 | AGTTCTGC | 0.0148
17 | ACTAATAA | 0.238
18 | CGCGTACG | 0.0543
19 | CGATCTAG | -0.142
20 | ATGGGCTC | -0.238
21 | ACTCCGAT | 0.0525
22 | AGACCTTG | -0.252

Row | Sequence | PBM E-score
23 | CGTGAGTC | -0.227
24 | GCTACGGA | 0.0651
25 | CAACACGC | -0.119
26 | CGCCCATC | -0.172
27 | AGACTTCG | -0.197
28 | ACGCCTAA | -0.00122
29 | ACCCCCAA | -0.108
30 | ATTGATAC | 0.176
31 | CACATAAA | 0.285
32 | GGTGTGAC | -0.271
33 | CAACACTC | 0.009
34 | CGCCCATA | -0.176
35 | TAGTCAGA | -0.0487
36 | GCCGTGTA | -0.0481
37 | ACTGTTGC | 0.0533
38 | GCCGACCC | 0.0514
39 | GAGTCAAA | -0.0703
40 | AGCTAAGA | 0.117
41 | ACGTCATC | -0.245
42 | CATTCTCG | 0.049
43 | CCATGGGC | -0.2
44 | CATGATCC | -0.0443

In a second layout: entries from further up.
Row,Sequence,PBM E-score
12,AAGCACAC,-0.138
13,ATCCCGGC,0.299
14,CTATCGGA,0.319
15,AAACCTCC,-0.152
16,AGTTCTGC,0.0148
17,ACTAATAA,0.238
18,CGCGTACG,0.0543
19,CGATCTAG,-0.142
20,ATGGGCTC,-0.238
21,ACTCCGAT,0.0525
22,AGACCTTG,-0.252
23,CGTGAGTC,-0.227
24,GCTACGGA,0.0651
25,CAACACGC,-0.119
26,CGCCCATC,-0.172
27,AGACTTCG,-0.197
28,ACGCCTAA,-0.00122
29,ACCCCCAA,-0.108
30,ATTGATAC,0.176
31,CACATAAA,0.285
32,GGTGTGAC,-0.271
33,CAACACTC,0.009
34,CGCCCATA,-0.176
35,TAGTCAGA,-0.0487
36,GCCGTGTA,-0.0481
37,ACTGTTGC,0.0533
38,GCCGACCC,0.0514
39,GAGTCAAA,-0.0703
40,AGCTAAGA,0.117
41,ACGTCATC,-0.245

Individual results from the results shown:
Entry for ACTGTTGC under PBM E-score: 0.0533
Entry for ATTTCCGA under PBM E-score: 0.359
Entry for AAGCACAC under PBM E-score: -0.138

(next part)

Row | Sequence | PBM E-score
45 | GCGCCGAA | 0.343
46 | ACCCAGCC | -0.221
47 | GGCGGTCA | 0.0102
48 | TAGTTAAA | 0.252
49 | CCTACCTA | -0.148
50 | AAAGCCGA | 0.174
51 | CAGAGCCC | -0.157
52 | CCGTGGGA | -0.134
53 | CGAGCGAA | 0.0664
54 | CGTCGTAG | -0.00822
55 | TTGCCCAA | -0.029
56 | GTCGAGAC | 0.0528
57 | CCTTGACC | -0.015
58 | GGCGAGAA | 0.142
59 | AGTCCGTG | -0.165
60 | CTGAACTA | -0.0652
61 | GAGGGTCC | -0.178
62 | AACTCATG | 0.0146
63 | AATTGCAG | 0.0393
64 | ACGGCACG | 0.194
65 | CGTATGTA | -0.0664
66 | TACTCACA | -0.0514

Row | Sequence | PBM E-score
67 | CGCTCAGC | 0.00126
68 | CGAGTGAA | 0.223
69 | GAAATGTA | 0.209
70 | CGTCTGCA | -0.104
71 | AGATGTTA | -0.153
72 | TGAATTCA | 0.104
73 | GGACATCA | 0.195
74 | AAAAAGTT | 0.0412
75 | AAACGCCT | -0.234
76 | CAGATACG | -0.0491
77 | AGATATGA | 0.078
78 | CCACGTCA | -0.27
79 | GATCGTGA | -0.0384
80 | CCCCGCAC | -0.203
81 | AATGTAAC | 0.146
82 | AGCAAATC | 0.0793
83 | GGAGAGGA | -0.204
84 | AGGGTCAC | -0.375
85 | CCAATCCG | 0.174
86 | TAAATGTA | 0.00083
87 | GAGGGTTA | -0.193
88 | CTCGAAGA | 0.0345

Row | Sequence | PBM E-score
89 | ATCTAGAC | -0.0638
90 | GTCTGAGA | -0.0915
91 | GACTTCCA | -0.16
92 | CATCTCAA | 0.00945
93 | AAATCTCA | -0.0709
94 | CAGAATAC | -0.0319
95 | TGACCGCA | 0.0226
96 | AAGGACAG | -0.0138
97 | ATATCGTA | 0.0323
98 | GTTAGGTA | 0.0787
99 | CTGCGAAC | -0.196
100 | AGATATAC | 0.0908
101 | AATGGAGG | -0.198
102 | ACAGGAGG | -0.228
103 | GCGACGGA | 0.055
104 | ATAGAGCC | -0.016
105 | GTAGTAAA | 0.13
106 | ACAACTAC | 1e-05
107 | GTCTTCAC | -0.0806
108 | GGGGCCTA | -0.391
109 | CTATCAAG | -0.0675
110 | GTCTTCCA | -0.115

Reference: the supplement of paper PMC3334620
